Laboratory results: US10842774B2, “Inhibited expression of PD-L1 and enhanced expression of PD-1” (IN Ingredients, Inc., priority 2017, dated 2020)
For at least one compound, name, drawing or mass did not settle the structure.

Tested on: PD-1
Experiment: Immunofluorescence densitometry of PDCD-1 (PD-1) expression in human macrophage-like THP-1 cells
Format: cell-based
Conditions: all concentrations tested, relative to control
Experimental: In the present study, human macrophage-like THP-1 cells were used to determine the effects of active agents.
Immunofluorescence studies were utilized to explore the effects of an active composition including Type-A polymers on PD-L1 and PD-1 proteins. Doubly linked procyanidin type-A polymers (3% by weight) in a dried extract of bark from C. burmanni was prepared as described (Anderson et al., J. Agric. Food Chem. 2004; 52:65-70), or provided by IN Ingredients Inc. (formerly Integrity Nutraceuticals, Columbia, Tenn., USA) as CINNULIN PF. The dried extract composition was solvated in DMSO and stored at −20° C. until use. The antibodies (anti-PD-L1, anti-PD-1) were all obtained from Santa Cruz Biotech. […]
Cells were rinsed with ice-cold PBS and fixed with 4% paraformaldehyde for 10 min at room temperature, followed by permeabilization with 0.3% Triton x-100 for 10 min. […] The cells were subjected to immunofluorescence staining with the specific antibodies (human macrophage-like THP-1 cells analyzed for PD-1 (Santa Cruz Biotech)) overnight at 4° C. […] The cells were examined by fluorescence microscopy (a Nikon TE2000-S microscope, Nikon, Tokyo, Japan). […] Fluorescence intensities (with pixel values exceeding five times the standard deviation of the background) from these images were semi-quantitatively analyzed by densitometry (ImageJ software, NIH Image).

C[C@@H]1O[C@@H](OC[C@H]2O[C@@H](Oc3c(-c4ccc(O)c(O)c4)oc4cc(O)cc(O)c4c3=O)[C@H](O)[C@@H](O)[C@@H]2O)[C@H](O)[C@H](O)[C@H]1O [rutin]
effect on PDCD-1 expression (in words): significantly enhanced
